Assay results published in patent publication US20230338297A1, “Encapsulated Agents that Bind to MCT-1” (THE JOHNS HOPKINS UNIVERSITY, priority 2020, published 2023).
Some of these results come from one statement about several compounds together. For at least one compound, name, drawing or mass did not settle the structure.

System: MiaPaCa-2 cells
Assay: rapid induction of cell death, timed exposure and washout of MiaPaCa-2 cells
Assay type: cell-based, human
Settings: washout, followed over 36 hours
Method: Representative pancreatic cancer cells MiaPaCa-2 (MCT-1: 163 TPM, Expression Atlas) were plated in a 96 well plate at 12,000 cells/well. These cells were then exposed to a 2-fold dilution series of sCD-3BP and free 3BP for different amounts of time (exposure time: 15 minutes, 30 minutes, 1 hour, 2 hours, 4 hours and 8 hours) and their outcome recorded by Incucyte® Live-Cell Analysis Systems, over 36 hours. After the desired timed exposure, cells were washed with PBS and fresh media was added to ensure no more drug persisted in the respective wells. […] The IC50 of both agents was calculated to be 84-90 uM when cells were exposed to the drug for only 15 minutes. […] While treated cells looked initially healthy following drug washout, cell death became discernable 24 hours post exposure.

Q: `O=C(O)C(=O)CBr` [3BP, 3-bromopyruvate] was tested. Which IC50 (15 minutes exposure) did it give?
A: 84 to 90 µM

Q: And the IC50 (30 minute exposure)?
A: 30 to 40 µM
